Experimental data reported in patent publication US9555050B2 (BIOGEN MA INC., priority 2012, dated 2017).
Some results were stated once for a whole list of compounds, not compound by compound. At least one compound was matched to its structure with a doubt left.

Target: T1, Human ATX protein (Homo sapiens, UniProt Q13822)
T1 construct: made in house
Test: ATX biochemical FRET assay with FS-3 substrate
Details: FS-3 substrate 2 μM, ATX 1.0 μg/mL, 30 min preincubation, 2 hours at room temperature
Description: ATX (Autotaxin) is a 125 KDa glycoprotein with lysophospholipase D (LPLD) activity that generates the bioactive lipid lysophosphatidic acid (LPA) from lysophosphatidylcholine (LPC). The ATX biochemical assay utilizes a FRET (fluorescence resonance energy transfer) technology platform. The fluorescence signal of FRET substrate FS-3 is quenched due to intra-molecular FRET of a fluorophore to a non-fluorescing quencher (Ferguson, C. G., et al., Org Lett. 2006 May 11; 8(10): 2023-2026, which is incorporated by reference in its entirety). ATX catalyzes the hydrolysis of the substrate which separates the dabsyl quencher from the fluorescein reporter, which becomes fluorescent. The reaction is monitored by a SpectraMax M5 (Molecular Devices, Sunnyvale, Calif.) with at excitation wavelength 485 nm and emission wavelength […].
Fatty acid free-BSA (Sigma A8806): 10 mg/mL in H2O, stored at 4° C.
2×ATX assay buffer: 100 mM Tris, 280 mM NaCl, 10 mM KCl, 2 mM CaCl2, 2 mM MgCl2, pH 7.4.
Human ATX protein: expressed and purified in house. Stored at −80° C.
Substrate FS-3 (Echelon, L-2000): 100 μg in 77.74.L H2O (1 mM stock), stored at −20° C.
384-well flat bottom plates—Corning #3575.
Compound dilution—All compounds were provided at 10 mM in 100% DMSO. In the first well, 2 μL of 10 mM compound was added to 78 μL of DMSO (1:40 dilution). In subsequent wells 3-fold dilution (total 10 dilutions) were performed.
1×ATX assay buffer was made up with a final concentration of 1 mg/mL fatty acid free-BSA using 2×ATX assay buffer, 10 mg/ml fatty acid free-BSA and ddH2O.
ATX protein was diluted with 1×ATX assay buffer to a concentration of 1.32 μg/mL (1.32×). 38 μL was added per well to the assay plate. The final concentration of ATX in the reaction as 1.0 μg/mL.
2 μL per well of compounds was transferred to provide the desired concentration. The plate was centrifuged, then incubated at room temperature for 30 minutes on the shaker.
FS-3 was diluted with 1×ATX assay buffer to a concentration of FS-3 of 10 μM (5×). Then, 10 μL was added per well to the assay plate. The final concentration of FS-3 in the reaction was 2 μM. The plate was centrifuged. The plate was kept shaking at room temperature for 2 hours. Because FS-3 substrate is light sensitive, plates were kept covered and protected from light.
Fluorescence was measured using SpectraMax M5 (excitation at 485 nm/emission at 538 nm, top read).

| IC50 [nM] | Compound |
| --- | --- |
| ≤ 500 | 4-((5-(trifluoromethyl)-6-((cis-4-(trifluoromethyl)cyclohexyl)oxy)-naphthalen-2-yl)methyl)morpholine-2-carboxylic acid [Example 77] |
| ≤ 100 | 2-((R)-1-((R)-1-(5-(trifluoromethyl)-6-((cis-4-(trifluoromethyl)cyclohexyl)oxy)naphthalen-2-yl)propyl)piperidin-3-yl)acetic acid and 2-((R)-1-((S)-1-(5-(trifluoromethyl)-6-((cis-4-(trifluoromethyl)cyclohexyl)oxy)naphthalen-2-yl)propyl)piperidin-3-yl)acetic acid [Example 103] |
| ≤ 500 | O=C(O)C[C@@H]1CCCN(Cc2ccc3c(C(F)(F)F)c(O[C@H]4CC[C@@H](C(F)(F)F)CC4)ccc3n2)C1 (relative stereo) [Example 88, 2-((S)-1-(((5-(trifluoromethyl)-6-(cis-4-(trifluoromethyl)cyclohexyl)oxy)quinolin-2-yl)methyl)piperidin-3-yl)acetic acid] |
| ≤ 100 | C[C@@H](NC1CC(C(=O)O)C1(C)C)c1ccc2c(C(F)(F)F)c(O[C@H]3CC[C@@H](C(F)(F)F)CC3)ccc2c1 (relative stereo) [Example 86, 2,2-dimethyl-3-((((R)-1-(5-(trifluoromethyl)-6-(cis-4-(trifluoromethyl)cyclo-hexyl)oxy)naphthalene-2-yl)ethyl)amino)cyclobutanecarboxylic acid] |
| ≤ 500 | C[C@H](NC1CC(C(=O)O)C1(C)C)c1ccc2c(C(F)(F)F)c(O[C@H]3CC[C@@H](C(F)(F)F)CC3)ccc2c1 (relative stereo) [Example 85, 2,2-dimethyl-3-((((S)-1-(5-(trifluoromethyl)-6-(cis-4-(trifluoromethyl)cyclo-hexyl)oxy)naphthalene-2-yl)ethyl)amino)cyclobutanecarboxylic acid] |
